Measured values from PubChem BioAssay AID504834 (National Center for Advancing Translational Sciences (NCATS), 2011).
The campaign covered roughly 320,000 compounds. About 22,000 (6.9%) were called active. Inconclusive results, whose numbers are uncertain, are shown with a selection of clear calls. The call rests on the fitted dose curve; in most records, active means well fitted inhibition curve with a large enough effect; inconclusive means small, poorly fitted or top-dose-only effect, or another doubt; inactive means no such curve, though single readings can be large or run the other way. Potencies beside an inconclusive call are fits to weak or partial responses and may not hold up.

assay: Primary qHTS for delayed death inhibitors of the malarial parasite plastid, 96 hour incubation; conditions: P. falciparum luciferase reporter growth; series mostly up to 28.7 µM
Method in brief: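 Plates of compound plus infected erythrocytes (2% hematocrit, 0.05% parasitemia final) incubate 96 hours, 37 C, 5% CO2. Detection reagent added; reduced luminescence from the parasites' luciferase reporter flags inhibition.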
Potency means the concentration at half of the fitted maximal effect.

| Structure (SMILES) | Potency |
| --- | --- |
| O=S(=O)(c1ccc2nc(-c3ccccc3)[nH]c2c1)N1CCN(c2ccc(Cl)cc2)CC1 | inconclusive: 6.57 µM [inhibitor, partial curve, poor fit] |
| COc1ccc(C(=O)OCCc2sc[n+](CC(=O)c3ccccc3)c2C)cc1 | inactive |
| O=C(Nc1ccc(N2CCN(C(=O)c3ccco3)CC2)cc1)c1ccc(Br)cc1 | inconclusive: 3.29 µM [inhibitor, partial curve] |
| COc1ccc(N2C(=O)C(F)(F)C2c2ccc(C)cc2)cc1OC (stereo unspecified) | inactive |
| COc1ccc(C(NC(C)=O)c2ccc3cccnc3c2O)c(OC)c1 (stereo unspecified) | active: 3.29 µM |
| Cc1ccc(C(=O)OCc2cc3ccccc3[nH]c2=O)cc1 | inconclusive: 11.7 µM [inhibitor, partial curve, poor fit] |
| CC(=O)Nc1ccc(S(=O)(=O)NCCc2c[nH]c3ccc(C)cc23)cc1 | inconclusive: 4.65 µM [inhibitor, partial curve] |
| CCCN1CCOC(CC(=O)Nc2ccc([N+](=O)[O-])cc2)C1=O (stereo unspecified) | inactive |
| Cc1cccc(NCc2ccccc2OCc2ccccc2F)c1 | inactive |
| CN1CCN(c2nc3c(c(=O)[nH]c(=O)n3C)n2CCCSc2nnnn2-c2ccccc2)CC1 | active: 9.28 µM |
| CCC(=O)c1cc2c(C)cc(=O)oc2c(C)c1OC(=O)C(C)C | inconclusive: 14.7 µM [inhibitor, single point] |
| NC(=O)C1CCN(C(=O)CCC(=O)c2ccc(F)cc2)CC1 | inactive |
| O=C(Nc1cccnc1Cl)c1cc(-c2ccc(Br)cc2)on1 | inactive |
| Cc1cc(Br)ccc1NC(=O)c1sc2ncn(CC(=O)N3CCN(c4ccccn4)CC3)c(=O)c2c1C | inconclusive: 9.28 µM [inhibitor, single point] |
| Oc1ccccc1-c1nc(NCc2ccccc2)c2ccccc2n1 | inconclusive: 18.5 µM [inhibitor, single point] |
| O=C(NCc1ccc(F)cc1)c1cccs1 | inconclusive: 11.7 µM [inhibitor, partial curve, poor fit] |
| CCOC(=O)Cn1c(-c2ccccn2)nc2ccccc21 | inconclusive: 5.86 µM [inhibitor, partial curve, poor fit] |
| Cc1c(NC(=S)NC(=O)c2cccc3ccccc23)cccc1C(=O)O | inconclusive: 10.4 µM [inhibitor, partial curve] |
| O=C(C1COc2ccccc2O1)N1CCN(c2ccccc2Cl)CC1 (stereo unspecified) | inconclusive: 18.5 µM [inhibitor, single point] |
| Cc1cccc(N2CCN(C(=O)C(C)n3nc(C)n4c(cc5occc54)c3=O)CC2)c1C (stereo unspecified) | inactive |
| CC(=O)Nc1ccc(C(=O)NCCc2ccccc2)cc1 | inactive |
| O=C(CC1C(=O)NCCN1Cc1c(F)cccc1Cl)NCc1ccccc1 (stereo unspecified) | inactive |
| CCn1cc(C2=NC(CC(C)C)CO2)c2ccccc21 (stereo unspecified) | inactive |
| Cc1ccc(N2C(S)=C(C#N)C(=O)NC2c2ccco2)cc1 (stereo unspecified) | inconclusive: 1.31 µM [inhibitor, partial curve, poor fit] |

Retrieved one by one from above:

| Structure (SMILES) | Potency |
| --- | --- |
| CCC(=O)c1cc2c(C)cc(=O)oc2c(C)c1OC(=O)C(C)C | inconclusive: 14.7 µM [inhibitor, single point] |
| COc1ccc(N2C(=O)C(F)(F)C2c2ccc(C)cc2)cc1OC (stereo unspecified) | inactive |

Shown with each value named: 3 of the compounds above.
COc1ccc(C(=O)OCCc2sc[n+](CC(=O)c3ccccc3)c2C)cc1
  Potency: inactive
CC(=O)Nc1ccc(S(=O)(=O)NCCc2c[nH]c3ccc(C)cc23)cc1
  Potency: inconclusive: 4.65 µM [inhibitor, partial curve]
Cc1cccc(NCc2ccccc2OCc2ccccc2F)c1
  Potency: inactive

(further entries)

| Structure (SMILES) | Potency |
| --- | --- |
| CCOC(=O)CCNC(=O)N1CCCC(Cc2ccccc2)(C(=O)OCC)C1 (stereo unspecified) | inactive |
| Cc1ccc(COC(=O)c2cc(S(=O)(=O)N3CCOCC3)ccc2C)cc1 | active: 13.1 µM |
| CCN1CCN(c2nc3sc4c(c3c(=O)n2-c2ccc(OC)cc2)CCCCC4)CC1 | inconclusive: 18.5 µM [inhibitor, single point] |
| COc1ccc(C2CC(C(F)(F)F)n3nc(C(=O)Nc4c(C)n(C)n(-c5ccccc5)c4=O)c(Cl)c3N2)cc1 (stereo unspecified) | inactive |
| O=C(NCc1ccc(C(F)(F)F)cc1)C12CN(Cc3ccccc3)CC1C(c1cccc([N+](=O)[O-])c1)=NO2 (stereo unspecified) | active: 9.28 µM |
| Cc1cc(-c2ccc(S(=O)(=O)N3CCN(c4ccc(F)cc4)CC3)s2)on1 | inconclusive: 18.5 µM [inhibitor, single point] |
| COc1ccc(N=C2S/C(=C\c3cc(C)n(C)c3C)C(=O)N2CC(C)C)cc1 | inconclusive: 13.1 µM [inhibitor, partial curve] |
| CCOC(=O)N1CCN(C(=O)/C(=C/c2ccc(Cl)cc2)NC(=O)c2ccccc2)CC1 | inconclusive: 3.7 µM [inhibitor, partial curve, poor fit] |
| CCSc1nnc(NC(=O)CCN2C(=O)C3CCCCC3C2=O)s1 (stereo unspecified) | inactive |
| O=C(Nc1nccs1)c1ccc(Cl)c(S(=O)(=O)N2CCOCC2)c1 | inconclusive: 5.86 µM [inhibitor, partial curve] |
| COc1ccc(N(CC(=O)NCc2ccccc2Cl)S(=O)(=O)c2c(C)n[nH]c2C)cc1 | inconclusive: 5.22 µM [inhibitor, partial curve] |
| COc1ccc(C(CNC(=O)c2cccc(S(=O)(=O)Nc3ccc(C)cc3)c2)N2CCOCC2)cc1 (stereo unspecified) | inconclusive: 16.5 µM [inhibitor, single point] |
| CCc1c(C)nc2ncnn2c1N1CCC(C(=O)NCc2cccc(OC)c2)CC1 | inconclusive: 18.5 µM [inhibitor, single point] |
| Cc1nc(C)c(/C(O)=C/c2nc3ccc([N+](=O)[O-])cc3oc2=O)o1 | inconclusive: 20.8 µM [inhibitor, partial curve, poor fit] |
| CN(C)c1ccc(CNC(=O)C2CCN(S(=O)(=O)c3ccc4c(c3)oc(=O)n4C)CC2)cc1 | inconclusive: 18.5 µM [inhibitor, single point] |
| O=C1CCCC2=C1Sc1ccc(Cl)cc1N2 | inactive |
| O=C(Cn1nnc(-c2ccccc2NC(=O)c2cccs2)n1)Nc1ccccc1 | inactive |
| O=C(c1ccc2[nH]c(=O)c(=O)[nH]c2c1)N1CCN(Cc2ccccc2)CC1 | inactive |
| CCc1cccc(NC(=O)Cc2ccc(OC)c(OC)c2)c1 | inactive |
| CC(=O)Nc1ccc(Oc2ccccc2)cc1 | inconclusive: 4.15 µM [inhibitor, partial curve, poor fit] |
| CCc1ccc(-c2cc(C)no2)cc1S(=O)(=O)NCc1ccco1 | inactive |
| O=C(Nc1cccc2ccccc12)N1CCN(c2ncccn2)CC1 | inactive |
| CC(=O)c1cccc(NC(=O)N2CCCC2C(=O)Nc2ccccc2C)c1 (stereo unspecified) | inconclusive: 14.7 µM [inhibitor, single point] |
| CC1=CC(C)C2(COC(=O)Nc3ccccc3)COC(C)C1C2C (stereo unspecified) | inconclusive: 18.5 µM [inhibitor, single point] |

| Structure (SMILES) | Potency |
| --- | --- |
| Cc1cccc(C(=O)NCC(=O)OCC(=O)N(C)CC(=O)Nc2ccccc2Cl)c1 | inactive |
| O=S(=O)(NCCN1CCCC1)c1ccc(Br)cc1 | inactive |
| Cc1ccccc1S(=O)(=O)c1c(C)cc(C)n(C)c1=O | inconclusive: 0.465 µM [inhibitor, full curve, poor fit] |
| O=C(CCN1CCOCC1)Nc1c(-c2ccccc2)c2cc(Br)ccc2[nH]c1=O | inconclusive: 0.738 µM [inhibitor, full curve, poor fit] |
| COCCn1c(SCC(=O)NC2CCCCC2)nnc1-c1ccco1 | inactive |
| Cc1ccc(C)c(S(=O)(=O)N2CCN(c3nc(CN4CCOCC4)nc4sc(C)c(C)c34)CC2)c1 | active: 11.7 µM |
| COC(=O)CCCC1=CC2=C(c3ccccc3)C(=O)C(C)(OC(=O)C3CCCC3)C(=O)C2=CN1CCc1ccccn1 (stereo unspecified) | inconclusive: 14.7 µM [inhibitor, single point] |
| N#CC(C#N)=C1C(=O)N(CCN2CCOCC2)c2ccccc21 | inactive |
| CCOc1ccccc1NC(=O)c1cc(-c2ccccn2)nc2ccccc12 | inconclusive: 14.7 µM [inhibitor, single point] |
| COc1ccc(N2CC(C)Cn3c2nc2c3c(=O)n(Cc3ccccc3F)c(=O)n2C)c(OC)c1 (stereo unspecified) | inconclusive: 18.5 µM [inhibitor, single point] |
| COc1ccc(OCC(=O)N2CCN(c3cccc(Cl)c3)CC2)cc1 | inconclusive: 18.5 µM [inhibitor, single point] |
| CSc1ccccc1NC(=O)c1cccc(S(=O)(=O)N2CCN(C)CC2)c1 | inconclusive: 18.5 µM [inhibitor, single point] |
| Cn1nc(C(=O)NNC(=O)C2CSC3(C)CCC(=O)N23)c2ccccc2c1=O (stereo unspecified) | inactive |
| CN(C)c1ccc(/C=C2\SC(N3CCCCC3)=NC2=O)cc1 | active: 4.15 µM |
| CCn1c2ccccc2c2cc(NC(=O)c3cccc([N+](=O)[O-])c3C)ccc21 | inconclusive: 4.15 µM [inhibitor, single point] |
| Nc1c(C(=O)c2ccc(Cl)cc2)sc2nc3c(cc12)CCC3 | inconclusive: 18.5 µM [inhibitor, single point] |
| CCN1C(=O)[C@H]2[C@@H](c3ccc(-c4ccc(Cl)c(Cl)c4)cc3)N[C@@](C)(C(=O)OC)[C@H]2C1=O | inconclusive: 18.5 µM [inhibitor, single point] |
| CC(C)c1ccc(C(C)NCCS(=O)(=O)c2ccc(Br)cc2)cc1 (stereo unspecified) | inconclusive: 11.7 µM [inhibitor, single point] |
| CCOc1cc2c(cc1/C=C/c1noc(C)c1[N+](=O)[O-])OC(C)C2 (stereo unspecified) | inconclusive: 20.8 µM [inhibitor, partial curve, poor fit] |
| Cc1cc(COc2ccccc2O)on1 | inactive |
| Cc1ccnc(NS(=O)(=O)c2ccc(NC(=O)c3ccccc3F)cc2)n1 | inconclusive: 5.22 µM [inhibitor, single point] |
| CCOC(=O)N1CCN(C(=O)CSc2ccc3nnc(-c4cccnc4)n3n2)CC1 | inactive |
| N#C/C(=C\c1cn(CC(=O)O)c2ccccc12)C(=O)NCc1ccccc1 | inconclusive: 13.1 µM [inhibitor, partial curve] |
